From patent US6670189B2, “Fumonisin detoxification compositions and methods” (priority 1994, dated 2003)
At least one compound was matched to its structure with a doubt left.

Experiments:
[1] = test system: Exophiala culture filtrate (fumonisin esterase); test: Hydrolysis of organic carboxylesters by Exophiala crude concentrated culture filtrate; assay type: biochemical; conditions: pH 5.2, 37° C., 1 hr; C18 TLC: fluorescamine
FB1 hydrolase activity = test: Induction of FB1 hydrolytic activity in Exophiala culture by carbon sources; assay type: cell-based; conditions: carbon source at 0.1%
Exophiala culture = test: Ability of carbon sources to support growth of Exophiala culture; assay type: cell-based; conditions: carbon source at 0.1%

| Structure (SMILES) | Hydrolysis by Exophiala culture filtrate [1] | FB1 hydrolase activity (FB1 hydrolase activity) | Growth (Exophiala culture) |
| --- | --- | --- | --- |
| CCCC[C@@H](C)[C@@H](OC(=O)C[C@@H](CC(=O)O)C(=O)O)[C@H](C[C@@H](C)CCCCCC[C@@H](O)C[C@H](O)[C@H](C)N)OC(=O)C[C@@H](CC(=O)O)C(=O)O [FB2, fumonisin B2] | + |  |  |
| O=C([O-])CC(CC(=O)[O-])C(=O)[O-].[Na+].[Na+].[Na+] [Na+ Tricarballylate] |  | − | ± |
